Assay results as given in patent US20260193623.
For at least one entry, the source does not settle the construct or the ends of the probe. For part of these data: Protein sequences can lack the tags named with them.

Tests used:
Assay in all cases: activity assay
MG151-95 = system: T1, MG151-95; conditions: primer extension gel; protein translated in vitro; protein details: Strep, RT-RNase H trim; label: 5'-FAM primer; DNA:RNA hybrid
T1 sequence: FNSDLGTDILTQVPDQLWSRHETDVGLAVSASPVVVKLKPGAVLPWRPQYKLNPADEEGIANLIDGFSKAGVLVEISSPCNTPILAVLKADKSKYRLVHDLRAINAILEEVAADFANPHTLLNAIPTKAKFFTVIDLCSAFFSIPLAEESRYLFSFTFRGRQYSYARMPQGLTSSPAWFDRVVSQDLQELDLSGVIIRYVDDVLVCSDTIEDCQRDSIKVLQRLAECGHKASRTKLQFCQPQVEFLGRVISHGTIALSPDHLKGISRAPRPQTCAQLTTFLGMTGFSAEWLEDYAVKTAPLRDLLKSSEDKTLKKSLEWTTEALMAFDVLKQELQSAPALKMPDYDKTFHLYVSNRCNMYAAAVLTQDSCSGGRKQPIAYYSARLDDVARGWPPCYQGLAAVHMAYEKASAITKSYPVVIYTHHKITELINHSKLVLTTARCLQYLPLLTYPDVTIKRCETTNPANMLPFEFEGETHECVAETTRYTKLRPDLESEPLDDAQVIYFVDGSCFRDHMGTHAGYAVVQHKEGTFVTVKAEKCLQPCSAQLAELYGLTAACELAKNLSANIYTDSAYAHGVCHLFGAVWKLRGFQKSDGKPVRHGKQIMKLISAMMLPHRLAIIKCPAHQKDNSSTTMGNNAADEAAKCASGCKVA

MG153-20 = system: T2, MG153-20; conditions: primer extension gel; 3 mM MgCl2, 37 C; protein translated in vitro; protein details: N-terminal Strep; label: 5'-FAM primer; DNA:RNA hybrid
T2 sequence (limits assumed): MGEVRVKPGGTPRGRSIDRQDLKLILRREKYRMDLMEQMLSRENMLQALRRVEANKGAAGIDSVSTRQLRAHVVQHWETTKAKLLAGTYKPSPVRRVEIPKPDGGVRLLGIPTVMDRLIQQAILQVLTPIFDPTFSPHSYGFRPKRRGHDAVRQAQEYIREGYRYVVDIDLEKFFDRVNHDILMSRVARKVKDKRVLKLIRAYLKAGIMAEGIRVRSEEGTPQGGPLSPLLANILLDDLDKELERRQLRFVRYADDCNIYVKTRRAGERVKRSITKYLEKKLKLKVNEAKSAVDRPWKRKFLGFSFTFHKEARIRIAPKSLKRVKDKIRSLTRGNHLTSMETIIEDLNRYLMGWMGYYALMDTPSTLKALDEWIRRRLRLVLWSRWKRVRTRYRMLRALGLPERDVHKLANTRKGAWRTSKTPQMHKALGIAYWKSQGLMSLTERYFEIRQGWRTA

MG153-30 = system: T3, MG153-30; conditions: primer extension gel; 3 mM MgCl2, 37 C; protein translated in vitro; protein details: N-terminal Strep; label: 5'-FAM primer; DNA:RNA hybrid
T3 sequence (limits assumed): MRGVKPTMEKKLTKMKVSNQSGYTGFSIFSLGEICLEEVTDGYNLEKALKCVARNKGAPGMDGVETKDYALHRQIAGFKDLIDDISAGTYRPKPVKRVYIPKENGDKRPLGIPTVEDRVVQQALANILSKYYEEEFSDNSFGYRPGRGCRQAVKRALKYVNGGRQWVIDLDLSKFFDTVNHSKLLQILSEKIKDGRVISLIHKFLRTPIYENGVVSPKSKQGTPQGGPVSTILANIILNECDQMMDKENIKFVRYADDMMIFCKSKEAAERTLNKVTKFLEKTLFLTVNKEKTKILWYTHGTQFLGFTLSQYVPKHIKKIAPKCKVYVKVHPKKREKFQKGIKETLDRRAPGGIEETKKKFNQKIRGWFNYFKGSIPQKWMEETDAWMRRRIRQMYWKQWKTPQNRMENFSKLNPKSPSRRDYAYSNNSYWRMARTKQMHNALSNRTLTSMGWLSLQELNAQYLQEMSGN

MG153-34 = conditions: primer extension gel; 3 mM MgCl2, 37 C; protein translated in vitro; protein details: N-terminal Strep; label: 5'-FAM primer; DNA:RNA hybrid
MG153-9 = system: T4, MG153-9; conditions: primer extension gel; 3 mM MgCl2, 37 C; protein translated in vitro; protein details: N-terminal Strep; label: 5'-FAM primer; DNA:RNA hybrid
T4 sequence (limits assumed): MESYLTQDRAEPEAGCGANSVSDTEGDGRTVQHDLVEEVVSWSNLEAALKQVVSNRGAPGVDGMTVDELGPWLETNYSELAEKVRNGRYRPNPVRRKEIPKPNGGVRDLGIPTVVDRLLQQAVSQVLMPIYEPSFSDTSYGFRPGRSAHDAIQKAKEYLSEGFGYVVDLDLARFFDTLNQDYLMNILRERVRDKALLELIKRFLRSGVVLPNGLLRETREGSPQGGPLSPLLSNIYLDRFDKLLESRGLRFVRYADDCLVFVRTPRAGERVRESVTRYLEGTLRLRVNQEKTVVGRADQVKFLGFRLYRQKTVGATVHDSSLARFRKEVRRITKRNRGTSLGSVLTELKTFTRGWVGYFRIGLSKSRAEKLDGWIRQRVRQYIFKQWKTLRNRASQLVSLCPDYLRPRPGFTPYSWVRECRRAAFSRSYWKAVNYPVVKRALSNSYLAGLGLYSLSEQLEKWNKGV

MG173-4 = system: T5, MG173-4; conditions: primer extension on general RNA; protein translated in vitro; protein details: N-terminal Strep; label: 5'-FAM primer; DNA:RNA hybrid
T5 sequence (limits assumed): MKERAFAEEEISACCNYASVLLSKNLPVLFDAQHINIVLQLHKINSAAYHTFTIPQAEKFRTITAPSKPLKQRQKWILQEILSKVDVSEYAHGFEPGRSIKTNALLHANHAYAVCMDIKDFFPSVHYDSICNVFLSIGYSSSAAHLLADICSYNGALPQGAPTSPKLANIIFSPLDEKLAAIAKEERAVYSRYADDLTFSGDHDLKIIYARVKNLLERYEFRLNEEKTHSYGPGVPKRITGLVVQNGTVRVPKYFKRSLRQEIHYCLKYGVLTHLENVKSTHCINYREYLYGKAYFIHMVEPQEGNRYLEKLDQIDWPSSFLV

Measured: activity on this sequence

GGCAAACCGCCTCTCCCCGCGCGTTGGCCGATTCATTAATGCAGCTGGCACGACAGGTTTCCCGACTGGAAAGGAGACCCGGGCAGTGAGCGCAACGGGTCTCCAATTTAAGCCAGCCCCGACACCCGCCAACACCCGCTGACGCGCCCTGACGGGCTTGTCTGCTCCCGGCATCCGCTTACAGACAAGCTGTGACCGTCTC / GAGACGGTCACAGCTTGTCTG [202-nt RNA template annealed to DNA primer]
active: MG151-95 | MG153-20 | MG153-30 | MG153-34 | MG153-9 | MG173-4
